# Test results published in patent US6746835B2, “Thermally processed image recording material” (Fuji Photo Film Co., Ltd., priority 2001, dated 2004).
# Tests used:
# [1] = Development humidity dependency, contrast, sensitivity, Dmin and Dmax of heat-developed image recording material; settings: for Dmax / Dmin: 25° C. and relative humidity of 50%; for Variation of line width (development humidity dependency): 30° C./75% RH vs 20° C./20% RH, exposed at line width of 60 μm; for Sensitivity: relative value of reciprocal of exposure giving density higher than Dmin by 1.5
# [2] = Photographic performance (Dmin, Dmax, contrast) before and after storage of heat-developed image recording material; settings: for Contrast After storage / Dmax After storage / Dmin After storage: stored at 50° C. for 3 days
# [3] = Table 1, addition amount 5 mmol/Agmol
# [4] = Table 3, addition amount 25 mmol/Agmol
# [5] = Table 1, addition amount 30 mmol/Agmol
# [6] = Table 1, addition amount 7 mmol/Agmol
# [7] = Table 3, addition amount 30 mmol/Agmol
compound,measurement,setting,value
CN1C(=O)C(=C[O-])N=C1c1ccccc1.[Na+] [RF-1],Contrast,[1]; addition amount 5 mmol/Agmol,13.4
same,Dmax,[1]; addition amount 5 mmol/Agmol,4.20
same,Dmin,[1]; addition amount 5 mmol/Agmol,0.13
same,Variation of line width (development humidity dependency),[1]; addition amount 5 mmol/Agmol,14.2 μm
same,Sensitivity,[1]; addition amount 5 mmol/Agmol,1.33
same,Contrast,[1]; addition amount 20 mmol/Agmol,16.8
same,Dmax,[1]; addition amount 20 mmol/Agmol,3.96
same,Dmin,[1]; addition amount 20 mmol/Agmol,0.17
same,Variation of line width (development humidity dependency),[1]; addition amount 20 mmol/Agmol,17.6 μm
same,Sensitivity,[1]; addition amount 20 mmol/Agmol,1.40
CCCCCCCCCCCCCCCc1cccc(CCCN2C(=O)/C(=C\[O-])c3ccccc32)c1.[Na+] [Compound R-2],Contrast Before storage,[2]; [3],16.5
same,Dmax Before storage,[2]; [3],3.9
same,Dmin Before storage,[2]; [3],0.13
same,Contrast After storage,[2]; [3],Measurement was
same,Dmax After storage,[2]; [3],3.3
same,Dmin After storage,[2]; [3],1.1
CCCCCCCCCCCCNC(=O)c1ccc(Cl)c(C2=N/C(=C/[O-])C(=O)C2(C)C)c1.[Na+] [Compound D-44],Contrast,[1]; addition amount 5 mmol/Agmol,18.5
same,Dmax,[1]; addition amount 5 mmol/Agmol,4.25
same,Dmin,[1]; addition amount 5 mmol/Agmol,0.14
same,Variation of line width (development humidity dependency),[1]; addition amount 5 mmol/Agmol,8.8 μm
same,Sensitivity,[1]; addition amount 5 mmol/Agmol,1.47
CCO/C=C1/N=C(c2ccccc2)OC1=O [RF-2],Contrast,[1]; addition amount 5 mmol/Agmol,12.2
same,Dmax,[1]; addition amount 5 mmol/Agmol,3.22
same,Dmin,[1]; addition amount 5 mmol/Agmol,0.15
same,Variation of line width (development humidity dependency),[1]; addition amount 5 mmol/Agmol,12.4 μm
same,Sensitivity,[1]; addition amount 5 mmol/Agmol,1.25
same,Contrast,[1]; addition amount 20 mmol/Agmol,15.9
same,Dmax,[1]; addition amount 20 mmol/Agmol,4.01
same,Dmin,[1]; addition amount 20 mmol/Agmol,0.22
same,Variation of line width (development humidity dependency),[1]; addition amount 20 mmol/Agmol,15.3 μm
same,Sensitivity,[1]; addition amount 20 mmol/Agmol,1.35
CCO/C=C1\N=C(c2ccccc2)N(C)C1=O [R′-5],Contrast Before storage,[2]; [4],16.0
same,Dmax Before storage,[2]; [4],3.9
same,Dmin Before storage,[2]; [4],0.13
same,Contrast After storage,[2]; [4],11.0
same,Dmax After storage,[2]; [4],3.2
same,Dmin After storage,[2]; [4],0.19
CCCCCCCCCCCCc1cc(CCCCCCCCCCCC)cc(N2N=C/C(=C/[O-])C2=O)c1.[K+] [Compound R-1],Contrast Before storage,[2]; [5],Measurement was
same,Dmax Before storage,[2]; [5],2.8
same,Dmin Before storage,[2]; [5],0.14
same,Contrast After storage,[2]; [5],Measurement was
same,Dmax After storage,[2]; [5],2.7
same,Dmin After storage,[2]; [5],0.15
O=C1/C(=C/[O-])N=C(c2cc(C(F)(F)F)cc(C(F)(F)F)c2)N1c1ccc(Cl)cc1.[Na+] [Compound A-6],Contrast Before storage,[2]; [3],20.5
same,Dmax Before storage,[2]; [3],4.5
same,Dmin Before storage,[2]; [3],0.13
same,Contrast After storage,[2]; [3],19.0
same,Dmax After storage,[2]; [3],4.3
same,Dmin After storage,[2]; [3],0.16
CCCCCCCCCCCCNc1ccc(N2C(=O)/C(=C\[O-])N=C2C(F)(F)F)cc1.[K+] [Compound A-18],Contrast Before storage,[2]; [6],20.0
same,Dmax Before storage,[2]; [6],4.2
same,Dmin Before storage,[2]; [6],0.12
same,Contrast After storage,[2]; [6],19.5
same,Dmax After storage,[2]; [6],4.1
same,Dmin After storage,[2]; [6],0.13
COc1ccc(NNC=O)cc1 [R′-1],Contrast Before storage,[2]; [7],17.2
same,Dmax Before storage,[2]; [7],3.8
same,Dmin Before storage,[2]; [7],0.14
same,Contrast After storage,[2]; [7],9.1
same,Dmax After storage,[2]; [7],3.4
same,Dmin After storage,[2]; [7],0.23
CCCCCCCCCCCCC1(CCCCCCCCCCCC)C(=O)OC(=C[O-])C1=O.[Na+] [Compound D-28],Contrast,[1]; addition amount 5 mmol/Agmol,21.5
same,Dmax,[1]; addition amount 5 mmol/Agmol,4.50
same,Dmin,[1]; addition amount 5 mmol/Agmol,0.12
same,Variation of line width (development humidity dependency),[1]; addition amount 5 mmol/Agmol,6.4 μm
same,Sensitivity,[1]; addition amount 5 mmol/Agmol,1.49
